Assay results as given in PubChem BioAssay (Tox21).
“And” between values parts separate entries of the source, which are not always exact repeats. Equal entries are not always repeated. Inconclusive means that the source gave no clear call. Such entries were picked first, then a sample of the others. A potency beside an inconclusive call is a rough fit, not a confirmed value. The source made the active and inactive calls. Calls come from the whole dose curve.

Each compound was assayed against Beta-2 adrenergic receptor (Homo sapiens) (UniProt P07550) (assay: Adrenergic beta2 receptor (ADRB2) small molecule agonists, cell-based qHTS assay (AID 1963593;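 for activation: CHO cells stably overexpressing human ADRB2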)). Conditions: CHO-ADRB2 cells, cAMP HTRF, 30 min; activation: at 92.4 µM (top of the series) unless noted.
How it was run: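 CHO cells stably over-expressing ADRB2 were plated overnight at 37C, then dosed with compounds plus a stimulation mix containing 100uM IBMX and 25uM Ro-20-1724 for 0.5hr at room temperature. cAMP was measured by HTRF competition, 1hr.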
% is set by controls: 0 for no effect and ±100 for the full control effect; potency is the fitted concentration of half-maximal effect.

How did the activation turn out when `COP(=O)(CCC(=O)NCO)OC` was run?
Its activation is inconclusive: -0.14%.

For `CCOP(=O)(SC(C)CC)N1CCSC1=O` (stereo not given), which activation is on record?
Its activation is inconclusive: -37.8%.

With `CCCCC#N` as the compound, how does the activation read?
Its activation is inconclusive: 7.93%.

How did the activation turn out when `N#Cc1ccccc1Cl` was run?
Its activation is inconclusive: -9.8%.

Which Potency does the source give for `Cc1ccc(C(=O)Cl)cc1` here?
The Potency was “inactive”.

For `CC(C)N1C(=O)c2ccccc2NS1(=O)=O`, which activation is on record?
Its activation is inconclusive: -3.23% and inconclusive: -11.3%.

How did the activation turn out when `O=c1[nH]c2ccccc2o1` was run?
The activation was inconclusive: -42.9%.

How did the Potency turn out when `CCOC(=O)c1ccccc1C(=O)OCC` was run?
The Potency was inconclusive: 2.21 µM [inhibitor, partial curve, poor fit] and inactive.

Which activation does the source give for `CCc1cc(C)cc(CC)c1-c1c(OC(=O)C(C)(C)C)n2n(c1=O)CCOCC2` here?
Its activation is inconclusive: 8.84%.

Which Potency does the source give for `Oc1c(Cl)cc(Cl)cc1Cl` here?
Its Potency is inconclusive: 3.4 µM [inhibitor, partial curve, poor fit] and inconclusive: 2.43 µM [inhibitor, single point].

`Nc1nc(=S)[nH][nH]1` was tested. Which Potency did it give?
Its Potency is “inactive”.

With `CCCCOC(=O)c1ccccc1C(=O)O` as the compound, how does the activation read?
The activation was inconclusive: 22.1%.

For `CC(C)C(C)(N)C#N` (stereo not given), which activation is on record?
Its activation is inconclusive: 30.4%.

`CCN(CC)C1CCCCC1` was tested. Which Potency did it give?
Its Potency is “inactive”.

How did the Potency turn out when `CN(C)c1ccccc1` was run?
The Potency was inconclusive: 62.6 µM [inhibitor, single point] and inactive.

How did the activation turn out when `O=C1OC(=O)C2C1C1(Cl)C(Cl)=C(Cl)C2(Cl)C1(Cl)Cl` (stereo not given) was run?
Its activation is inconclusive: 0.122%.

`O=C(C(Cl)(Cl)Cl)C(Cl)(Cl)Cl` was tested. Which Potency did it give?
The Potency was inconclusive: 70.1 µM [inhibitor, partial curve, poor fit].

For `CCCCN=C=O`, which Potency is on record?
Its Potency is “inactive”.

Which activation does the source give for `Brc1c(Br)c(Br)c(Br)c(Br)c1Br` here?
Its activation is inconclusive: -60.9% [at 8.39 µM].

How did the activation turn out when `O=NN1CCN(N=O)CC1` was run?
Its activation is inconclusive: 3.74%.

With `FC(Cl)(Cl)Cl` as the compound, how does the Potency read?
Its Potency is inconclusive: 24.3 µM [inhibitor, single point].

Which Potency does the source give for `COC(=O)C(Cl)C(=O)OC` here?
Its Potency is “inactive”.

For `COc1ccc(CN2CCNCC2)c(OC)c1OC`, which Potency is on record?
The Potency was “inactive”.

For `C=C(C)[C@@H]1CC=C(C=O)CC1`, which Potency is on record?
The Potency was “inactive”.

With `CC1CC(=O)O1` (stereo not given) as the compound, how does the Potency read?
The Potency was inconclusive: 2.91 µM [inhibitor, single point] and inactive.

Which Potency does the source give for `Nc1cnn(-c2ccccc2)c(=O)c1Cl` here?
Its Potency is “inactive”.

With `N#Cc1ccc(O)cc1` as the compound, how does the Potency read?
The Potency was inconclusive: 6.11 µM [inhibitor, full curve, poor fit].

How did the activation turn out when `CC1=NNC(=O)N(/N=C/c2cccnc2)C1` was run?
The activation was inconclusive: -17.5%.

`ClCCCCCCCl` was tested. Which Potency did it give?
The Potency was “inactive”.

Which activation does the source give for `NC(=S)c1c(Cl)cccc1Cl` here?
Its activation is inconclusive: -0.145%.

With `N#CCNCC#N` as the compound, how does the Potency read?
Its Potency is “inactive”.

With `Nc1ccc(Oc2ccc(N)cc2)cc1` as the compound, how does the Potency read?
The Potency was inconclusive: 13.7 µM [inhibitor, single point].

Which Potency does the source give for `C[N+]1(CCC(C(N)=O)(c2ccccc2)c2ccccc2)CCCCC1` here?
Its Potency is inconclusive: 0.376 µM [inhibitor, partial curve, poor fit].

Which Potency does the source give for `CC(C)CCON=O` here?
Its Potency is inconclusive: 66.8 µM [activator].

For `CCOP(=O)(CN(CCO)CCO)OCC`, which Potency is on record?
The Potency was “inactive”.

`C1=CCC=C1` was tested. Which Potency did it give?
The Potency was “inactive”.

For `O=C(Cl)OCc1ccccc1`, which Potency is on record?
The Potency was “inactive”.

Which Potency does the source give for `CC(C)(Cl)[N+](=O)[O-]` here?
The Potency was inconclusive: 48.8 µM [inhibitor, partial curve, poor fit].

For `COC(=O)C(Br)CBr` (stereo not given), which activation is on record?
The activation was inconclusive: 13.8%.

With `CCOP(=O)(OCC)OCC` as the compound, how does the activation read?
Its activation is inconclusive: -0.676%.
